The list is a part of this screen's results and no random one: it gathers tests that were run many times, whatever their T/C, doses with no T/C, and many T/C values between a quarter and a half above the control. Other doses and runs of a compound stand elsewhere. T/C: endpoint of the treated group in % of that of the vehicle group. Some doses have a count of surviving animals in place of a T/C: the source holds a T/C of zero for them, seemingly a mark for toxic or unscored doses. Some doses without a T/C left all or most animals alive at the check, yet need not have been tolerated: the source hardly ever lists a survival T/C far under the control, and the zero likely stands for such cases as well. Counts of survivors are from the toxicity check (mostly the fifth day) where no day follows; animals may have died later. Schedule codes are those of the source, read here as Q, the interval in days (D) or hours (H), X, the number of doses. Some molecules as drawn cover several salts, stereoisomers or complexes of the source; a dose is that of the sample tested. Brackets with × give the number of equal values in this list. For survival time, the PubChem record calls one and a half times the control and up active, and a quarter to a half above the control has no call in these data; cut-offs in other NCI protocols can differ. Some T/C values carry the count of animals alive at the toxicity check (mostly the fifth day); without a count, all were alive then.
Test system: CD2F1 mice, L1210 leukemia ip, survival T/C
Test: NCI In Vivo Anticancer Drug Screen. Data for tumor model L1210 Leukemia (intraperitoneal) in CD2F1 (CDF1) mice
Settings: T/C endpoint: mean survival time, higher T/C = longer survival
Outline: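 Read-out first: treated-group measurement over vehicle-control measurement, expressed as a ratio. Animals bore a transplanted tumor line and were dosed with compound or vehicle.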

[1] = dose: 100.0 mg/kg/injection, schedule: Q04DX002 (ip), vehicle: saline with Tween-80
[2] = dose: 200.0 mg/kg/injection, schedule: Q04DX002 (ip), vehicle: saline with Tween-80
[3] = dose: 200.0 mg/kg/injection, schedule: Q04DX003 (ip), vehicle: saline with Tween-80
[4] = dose: 12.5 mg/kg/injection, schedule: Q04DX003 (ip), vehicle: saline with Tween-80

In the case of `CCCCCCCCCCCCCCCCCC[N+]1(C)CCSCC1`, the survivor count (dose: 50.0 mg/kg/injection, schedule: Q01DX001 (ip), vehicle: saline with Tween-80) is reported as 3 of 6, the survivor count (dose: 100.0 mg/kg/injection, schedule: Q01DX001 (ip), vehicle: saline with Tween-80) is reported as 5 of 6 and the survivor count (dose: 200.0 mg/kg/injection, schedule: Q01DX001 (ip), vehicle: saline with Tween-80) is reported as 0 of 6. The survivor count (dose: 400.0 mg/kg/injection, schedule: Q01DX001 (ip), vehicle: saline with Tween-80) was 0 of 6 (2×).
For `CCCCCCCCCCCCCCCc1cc(=O)n(-c2ccc(C(=O)OCC)cc2)n1C`, the survivor count (dose: 400.0 mg/kg/injection, schedule: Q01DX009 (ip), vehicle: saline with Tween-80) was 5 of 6.
With `CC12C3C4C5C3C1(C)C(C42)C51OCCO1` (centres undefined) the survivor count (dose: 50.0 mg/kg/injection, schedule: Q04DX002 (ip), vehicle: saline with Tween-80) was 1 of 3, the survivor count [1] was 0 of 3 and the survivor count [2] was 0 of 3. For the same molecule, the survivor count (dose: 400.0 mg/kg/injection, schedule: Q04DX002 (ip), vehicle: saline with Tween-80) was 0 of 3.
`C[n+]1ccc(/C(=N\O)c2ccccc2)cc1` was tested, and the survivor count (dose: 300.0 mg/kg/injection, schedule: Q01DX001 (ip), vehicle: saline) was 0 of 6.
`CCSc1ncnc2c1ncn2C1OC(CO)C(O)C1O` (centres undefined) was tested, and the T/C (dose: 50.0 mg/kg/injection, schedule: Q01DX009 (ip), vehicle: saline with Tween-80) was 142 % of control, the T/C (dose: 100.0 mg/kg/injection, schedule: Q01DX009 (ip), vehicle: saline with Tween-80) was 147 % of control and the T/C (dose: 100.0 mg/kg/injection, schedule: Q04DX003 (ip), vehicle: saline sonified) was 130 % of control. For the same molecule, the T/C (dose: 200.0 mg/kg/injection, schedule: Q04DX003 (ip), vehicle: saline sonified) was 130 % of control, the T/C [3] was 140 % of control and the T/C (dose: 300.0 mg/kg/injection, schedule: Q04DX003 (ip), vehicle: saline with Tween-80) was 129 % of control [5 of 6 alive]. For the same molecule, the survivor count (dose: 400.0 mg/kg/injection, schedule: Q04DX003 (ip), vehicle: saline sonified) was 3 of 6.
`O=C1C2CCN(CC2)C1CN1CCC2(CC1)C(=O)NCN2c1ccccc1` (centres undefined) was tested, and the survivor count [2] was 1 of 3.
`N#CCCN=C1C=CC(=C(c2ccc(NCCC#N)cc2)c2ccccc2Cl)C=C1` was tested, and the survivor count [1] was 3 of 3.
In the case of `CC([NH-])C([NH-])O.[Br][Pt+2][Br]` (centres undefined), the T/C (dose: 6.25 mg/kg/injection, schedule: Q04DX003 (ip), vehicle: saline with Tween-80) is reported as 130 % of control and the T/C [4] is reported as 142 % of control.
For `O=c1cc(Nc2ccc(Br)cc2)[nH]c(=O)[nH]1`, the survivor count (dose: 400.0 mg/kg/injection, schedule: Q01DX001 (ip), vehicle: other) was 1 of 6.
With `CN(C)N=Nc1ccc(/C=C/C(=O)O)cc1` the T/C (dose: 50.0 mg/kg/injection, schedule: Q01DX009 (ip), vehicle: Klucel (hydroxypropylcellulose) (HPC)) was 127 % of control (2×), the T/C (dose: 100.0 mg/kg/injection, schedule: Q01DX009 (ip), vehicle: Klucel (hydroxypropylcellulose) (HPC)) was 142 % of control and the T/C (dose: 200.0 mg/kg/injection, schedule: Q01DX009 (ip), vehicle: Klucel (hydroxypropylcellulose) (HPC)) was 142 % of control. The survivor count (dose: 400.0 mg/kg/injection, schedule: Q01DX009 (ip), vehicle: Klucel (hydroxypropylcellulose) (HPC)) was 4 of 6.
`CC([NH-])C([NH-])O.[Cl][Pt+2][Cl]` (centres undefined) was tested, and the T/C [4] was 125 % of control and the T/C (dose: 25.0 mg/kg/injection, schedule: Q04DX003 (ip), vehicle: saline with Tween-80) was 130 % of control.
`CCOC(=O)c1cc(C=O)nc2c(Cl)cc(Cl)cc12` was tested, and the survivor count [3] was 6 of 6.

From PubChem BioAssay AID256 (DTP/NCI, 2004)
